# Assay results taken from article PMC2809336, “Antidepressant Interactions with the NMDA NR1-1b Subunit” (Journal of Biophysics, 2008).
# Target: T1, NMDA NR1-1b S1S2 domain (Rattus norvegicus, UniProt P35439)
# T1 construct: (His)8-TSG-LVPRG(thrombin cut site)-S1(394-544)-GT-S2(663-800); (His)8-TSG-LVPRG (His8 tag with thrombin cut site) (N); made in house; host or cells: E. coli Origami B(DE3)
# Experiment: Kd determination by intrinsic tryptophan fluorescence (double reciprocal, Benesi-Hildebrand plot)
# Type: binding
# Details: 5.29 μM NR1-1b S1S2, buffer 3 pH 6.5, 25°C, error at 95% confidence level
# Experimental: Intrinsic fluorescence studies were performed in a Cary Eclipse fluorometer at 25°C. All emission scans were acquired from 300 to 400 nm upon excitation at 290 nm, with 10 nm excitation and emission slit widths in a 10 mm-path-length cell. Excitation was performed at 290 nm to minimize interference from both tyrosine residues in the NMDA NR1-1b S1S2 domain as well as the aromatic antidepressants being studied. Before data acquisition, samples were incubated for thirty seconds in the sample holder at 25°C. […] Thus, data was reported without a buffer subtraction.
# Protein samples were at a final concentration of 5.29 μM in buffer 3 (10 mM MES, pH 6.5, 25 mM NaCl, 1 mM glycine). All antidepressants were solubilized in 100% methanol to the highest attainable concentrations. To account for any effects methanol had on fluorescence intensity, protein spectra with methanol were collected, allowing direct comparison between samples with and without antidepressant. Each data set consisted of at least three independent emission spectra of identically prepared samples. The data is reported with error determined at the 95% confidence level.
# A double reciprocal plot was used to determine Kd, which derives from the Benesi-Hildebrand relationship, provided there is a 1 : 1 binding stoichiometry. […] When 1/ΔF is plotted against 1/[L], a linear relationship exists. The intercept on the x-axis is − K d.. […]
smiles,measurement,value
CN[C@H]1CC[C@@H](c2ccc(Cl)c(Cl)c2)c2ccccc21 [sertraline],Kd,240 ± 90 µM
